{
  "source": "patent US5688659",
  "about": "(dated 1997)",
  "assay": "general procedure: Fmoc solid-phase peptide synthesis; Wang resin (polystyrene/1% divinylbenzene), loading 0.50 mmol/g; dicyclohexylcarbodiimide / N-hydroxybenzotriazole",
  "conditions": "whole synthesis, RP-HPLC, scale of the general procedure 5 g resin",
  "data": [
    {"substance": "H-PESSELTTE-OH", "values": [
      {"measurement": "crude HPLC purity", "value": 54, "unit": "%"},
      {"measurement": "final HPLC purity", "value": 97.2, "unit": "%"}
    ]}
  ]
}
